# Data taken from the supplement of paper PMC12889115.
# The other results are listed elsewhere or left out. These are raw signals, not scaled to a control.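 First-pass screen: polymyxin B was added at a level that permeabilizes the Salmonella outer membrane while sparing the inner membrane. DMSO wells, with and without polymyxin B, defined maximum growth. Because plates differed from one another, each plate's data were ranked separately and the compounds with the lowest OD600 were carried forward as hits.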
# Tested on: Salmonella enterica serovar Typhimurium SL1344
# Test: bacterial growth OD600 after 18 h with compound and polymyxin B; higher = more bacterial growth (less inhibition)
# Conditions: 50 µM, Mueller-Hinton broth
SMILES,bacterial growth OD600 (polymyxin B 0.75 µg/mL),bacterial growth OD600 (polymyxin B 1 µg/mL)
COCCN1C(=O)CC(CC(=O)N2CCCC(c3ccccc3)C2)(c2ccccc2F)C1=O (configuration not stated),0.013,
CC(C(=O)N1CCC(CCC(=O)Nc2ccc(F)c(Cl)c2)CC1)N1CCCC1=O (configuration not stated),,1.05
CN(C)S(=O)(=O)N1CCC(n2nccc2NC(=O)Cc2ccccc2)CC1,,0.898
CC(C)CN(C)c1ccc(C(=O)NCCC2CCCCN2C)cn1 (configuration not stated),0.807,
COC(=O)c1ccccc1-c1cc(C)cc2c1OC(CNC(=O)Cn1cncn1)C2 (configuration not stated),0.833,
CC(C)S(=O)(=O)c1ncc(CN2C[C@@H]3CCC[C@H]2C3)n1CCc1ccccc1,,1.19
Cc1ccc(CN2CCC(CN(C)Cc3c(F)ccc(F)c3F)CC2)o1,,1.23
CC(C)(CNc1nc2nonc2nc1NC1CCCC1)N1CCOCC1,,0.811
O=C(c1ccsc1)N1CCCC(N2CCN(Cc3ccc4c(c3)OCO4)CC2)C1 (configuration not stated),,0.928
COc1ccc(-c2n[nH]cc2CN2CCCC(c3nc4ccccc4o3)C2)c(OC)c1 (configuration not stated),,0.779
CC(Nc1nc(CN2CCN(C(=O)c3ccco3)CC2)nc2ccccc12)c1ccc(F)cc1 (configuration not stated),0.819,
Fc1cccc(-c2cnnc(N3CCC(OCc4ccccc4)CC3)n2)c1,0.051,
Cn1c(-c2ccncc2)nc2cc(C(=O)N3CCC(c4ccccc4)CC3)cc(NC(=O)C3CCC3)c21,0.843,
COC(=O)C1CCCCN1C(=O)c1c(OC)cc(=O)n2c1CCN(Cc1ccc3c(c1)CCO3)CC2 (configuration not stated),0.802,
COc1ccc(F)c(CC2(CCC(=O)N(C)Cc3cccc(-n4nc(C)cc4C)c3)CCC(=O)N2)c1 (configuration not stated),0.703,
COC(=O)c1cc(CNC(=O)c2ccco2)cc(NS(=O)(=O)c2cccc(C(F)(F)F)c2)c1,0.625,

SMILES,bacterial growth OD600 (polymyxin B 0.75 µg/mL),bacterial growth OD600 (polymyxin B 1 µg/mL)
CCn1cc(CN2C[C@H]3OC(=O)N(Cc4ccccc4OC)[C@H]3C2)cn1,0.789,
C=CCOc1cccc(C(=O)NC2CCCc3nc(N(C)C)ncc32)c1 (configuration not stated),0.731,
CC(C(=O)NCc1cccnc1Oc1ccccc1)n1cccn1 (configuration not stated),,0.988
O=C(NC1CCCC1)c1ccc(N2CCC(NCCc3cccc(F)c3)CC2)cc1,0.021,
COc1ccc(CN2CCC(n3nccc3NC(=O)CC(C)C)CC2)c(F)c1,0.934,
COc1ccc(CCN2CC(NC(=O)Cc3ccccc3C)CC2=O)cc1 (configuration not stated),,0.898
COc1ccc(Cl)cc1NC(=O)CCC1CCCN(C(=O)Cn2nc(C)cc2C)C1 (configuration not stated),,0.779
Cc1oc(-c2ccc(NC(=O)Cc3ccccc3)cc2)nc1CNC(=O)CCC(C)C,0.791,
Cc1cc(C(=O)NC(C)c2cnc(-c3ccncc3)nc2C)n[nH]1 (configuration not stated),,0.974
Oc1ccc(CN2CC[C@@H](N3CCN(c4ccccn4)CC3)[C@H](O)C2)cc1Cl,,0.908
COC(=O)CCC(=O)NC1CC(=O)N(Cc2cccc3ccccc23)C1 (configuration not stated),,0.949
COc1ccc(S(=O)(=O)N2CCC(CO)(Cc3ccccc3C(F)(F)F)CC2)cc1,,0.811
Cc1nonc1N1CCN(Cc2nc(-c3cccc(C(F)(F)F)c3)oc2C)CC1,,1.04
COc1ccccc1CN1C(=O)O[C@@H]2CN(C(=O)NCc3ccco3)C[C@@H]21,0.803,
Cn1ccnc1CN1CCCC(CCc2ccccc2F)C1 (configuration not stated),0.989,
COc1ccc(N2C(=O)CN(C(=O)c3ccccc3N(C)C)CC2(C)C)cc1,0.855,

# Single records, as listed above:
# COC(=O)c1ccccc1-c1cc(C)cc2c1OC(CNC(=O)Cn1cncn1)C2 (configuration not stated) as listed: bacterial growth OD600 (polymyxin B 0.75 µg/mL): 0.833
# Cn1ccnc1CN1CCCC(CCc2ccccc2F)C1 (configuration not stated) as listed: bacterial growth OD600 (polymyxin B 0.75 µg/mL): 0.989
